For assay [1], the target named is 6His-tagged human ERRγ ligand binding domain (LBD) (229-458) (human) (UniProt P62508). Description: X-ray crystal structures, space group P41212, one molecule in the asymmetric unit.
For assay [2] the target is unchanged. Description: size exclusion chromatography and dynamic light scattering, 4 µM protein and higher (self-association). For orientation: In gel filtration, larger molecules generally elute earlier.

Results are given in words; binding and its absence hold for the method and conditions named. Some results given as binding are weak or reduced against the parent protein; the word gives no strength. Where a sequence is shown, tags or fusion partners need not be part of it.

B1: 6His-tagged human ERRγ ligand binding domain (LBD) (229-458) (receptor)
chain: HHHHHHPAKKPYNKIVSHLLVAEPEKIYAMPDPTVPDSDIKALTTLCDLADRELVVIIGWAKHIPGFSTLSLADQMSLLQSAWMEILILGVVYRSLSFEDELVYADDYIMDEDQSKLAGLLDLNNAILQLVKKYKSMKLEKEEFVTLKAIALANSDSMHIEDVEAVQKLQDVLHEALQDYEAGQHMEDPRRAGKMLMTLPLLRQTSTKAVQHFYNIKLEGKVPMHKLFLEMLEAKV
As for B1, the binding entry in assay [1] and in assay [2] was “binds” throughout.
